The target in experiment [1] is PIN1 (endogenous) (human (endogenous in HCT116)) (UniProt Q13526). Kind of experiment: proximity ligation; Duolink analysis in HCT116 cells under normoxia or hypoxia; also with or without PiB (20 μM); HIF-1α and PIN1 co-labeled with antibodies.
The target of experiment [2] is GST-PIN1 fusion protein (UniProt Q13526). Kind of experiment: pull-down; cell lysates incubated with GST or GST-PIN1 fusion protein, then GST beads; blot with anti-HIF-1α; only the target purified.
In experiment [3] the target is PIN1 (endogenous) (human (endogenous in HCT116)) (UniProt Q13526). The experiment in a line: co-IP; endogenous proteins, HCT116 cells under hypoxia 4 h; lysates incubated with normal IgG or anti-PIN1, blot anti-HIF-1α.
The target of the next experiment is Flag-tagged HIF-1α (UniProt Q16665). Kind of experiment: co-IP; HCT116 cells transfected with Flag-tagged HIF-1α and HA-PIN1, hypoxia 4 h; IP anti-Flag, blot anti-HA.
The target of experiment [4] is GST-PIN1 fusion protein (UniProt Q13526). Kind of experiment: pull-down; purified HA-HIF-1α (treated with or without lambda phosphatase, 1 h, 30°C) incubated with GST-PIN1, pulled down with GST beads; immunoblot; both purified.

Protein sequences, listed by entry. Tags and fused reporters are not part of them.
UniProt Q13526: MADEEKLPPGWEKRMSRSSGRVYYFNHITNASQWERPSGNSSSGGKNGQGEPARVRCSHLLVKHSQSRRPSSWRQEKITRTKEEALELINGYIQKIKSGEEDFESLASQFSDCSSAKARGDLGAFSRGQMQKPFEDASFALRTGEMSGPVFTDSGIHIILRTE
UniProt Q16665: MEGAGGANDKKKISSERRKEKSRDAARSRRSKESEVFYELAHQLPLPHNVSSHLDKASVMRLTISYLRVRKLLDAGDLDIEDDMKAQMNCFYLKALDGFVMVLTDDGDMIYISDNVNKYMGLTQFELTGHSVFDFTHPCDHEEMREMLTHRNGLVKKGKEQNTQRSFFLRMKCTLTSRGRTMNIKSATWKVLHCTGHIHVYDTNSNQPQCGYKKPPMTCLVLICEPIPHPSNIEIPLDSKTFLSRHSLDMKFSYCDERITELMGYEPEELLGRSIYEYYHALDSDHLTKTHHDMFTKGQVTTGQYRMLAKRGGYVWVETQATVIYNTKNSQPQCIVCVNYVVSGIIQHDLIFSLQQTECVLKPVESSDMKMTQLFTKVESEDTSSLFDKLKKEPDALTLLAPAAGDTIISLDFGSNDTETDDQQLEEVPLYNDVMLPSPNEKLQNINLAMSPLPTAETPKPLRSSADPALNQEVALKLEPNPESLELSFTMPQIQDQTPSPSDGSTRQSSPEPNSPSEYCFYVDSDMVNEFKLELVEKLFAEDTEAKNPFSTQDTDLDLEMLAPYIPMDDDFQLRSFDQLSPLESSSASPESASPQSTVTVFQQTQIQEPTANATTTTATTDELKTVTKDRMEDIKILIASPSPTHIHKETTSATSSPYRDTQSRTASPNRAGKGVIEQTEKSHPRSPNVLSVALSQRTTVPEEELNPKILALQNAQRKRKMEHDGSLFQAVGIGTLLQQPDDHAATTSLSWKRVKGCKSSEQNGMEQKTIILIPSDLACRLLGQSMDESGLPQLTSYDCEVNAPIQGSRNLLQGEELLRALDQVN

Results are given in words; binding and its absence hold for the method and conditions named. For some assays here: In cells and extracts the contact can be indirect. Some entries that bind do so weakly or less than the wild type.

Regarding “Hypoxia-Inducible Factor-1α (endogenous) (from UniProt Q16665 1-826)”, the binding entry (in experiment [1]; with GST-PIN1 fusion protein [2]; in experiment [3]) was “binds” each time.

On to HA-PIN1 (from UniProt Q13526 1-163), for which the binding entry in the experiment with Flag-tagged HIF-1α is “binds”.

Regarding “HA-HIF-1α proteins (purified) (from UniProt Q16665 1-826)”, the binding entry with GST-PIN1 fusion protein [4] is on record as “binds”.

The values are drawn from publication PMC4786145.
